Data taken from PubChem BioAssay AID1347426 (Functional Genomics Laboratory (NCATS/FGL), 2020).
The whole screen tested about 31,000 sequences, of which about 1,400 (4.5%) were called active.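 The calls were made as follows: active = median seed-adjusted z-score above 1 or below -1; inactive = the rest.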 This is one part of the list.

Test: Novel Modifiers of Survival Motor Neuron (SMN) Protein: Gene Identification via Genome-wide siRNA Screen;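 also: luminescence tracks full-length SMN protein made from the SMN2 reporter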
Conditions: HEK293T SMN2-luciferase reporter, siRNA knockdown, 72 h; actives lie on both sides
Summary of the method: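 Steps: spot 1 pmol siRNA, add Lipofectamine RNAiMax in serum-free DMEM, seed HEK293T SMN2–luciferase reporter cells; incubate 72 h at 37 °C; add ONE-Glo; normalize luminescence to control siRNA, log10, MAD. Candidates: |MAD| > 1.0.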

Sequence | median seed-adjusted z-score
GGAGUUACCUGAGCCCAGATT against CTSW | inactive: -0.342
GGCCCAUAAGUACCACUGATT against HBE1 | inactive: -0.425
AGCUCAAUCCGGACUGUGATT against BGLAP | inactive: -0.488
GGUACAAUCUAGCGACAAATT against SUCLG2 | inactive: -0.619
GGCUAACAGUGAUGCUAUUTT against GHR | inactive: 0.273
GAGCAGGAUUGGUUUAAAATT against SNAPC4 | inactive: -0.62
AGUUGUUUUUGGACCACAATT against GP5 | inactive: -0.286
GCUGGUUUCGUGUACAUCUTT against ALG3 | inactive: -0.446
GGACUUGAACAGUAUGCUATT against CCT8 | inactive: -0.161
CUCAAGAAAAUGCAUCAGATT against EBPL | inactive: -0.113
CUACAGAUCUCCAAUGAAATT against DAXX | inactive: 0.349
GGAGUGAUGAUAACGAGGATT against LATS1 | inactive: 0
GCAGAACUGACAGUCGAUATT against DMTF1 | inactive: 0.396
GCCCAACAGGUACCGCUAUTT against NAGLU | inactive: -0.526
GAUUCCGUCUAAUCCUAGATT against C5 | inactive: 0.153
GACCCAGACUGCAACAAGATT against CELSR2 | inactive: -0.493
CAAGGAAUAUUGACGUAUATT against DDX53 | inactive: -0.136
GUCUGUCAAUGUACCUUCUTT against 3-Mar | inactive: 0.069
CAACUUGGACAAGACCUUATT against GYS1 | inactive: 0.874
CCGCUGAUGUUAUUCGCAUTT against PNMA1 | inactive: 0.2
GGCGGUGAAUGACAGCUAUTT against GRIN2A | inactive: 0.025
UCCCGAUUCUGAAUAUUCATT against SEPX1 | inactive: -0.0545

Looked up above.
GACCCAGACUGCAACAAGATT against CELSR2 | median seed-adjusted z-score: inactive: -0.493
GCCCAACAGGUACCGCUAUTT against NAGLU | median seed-adjusted z-score: inactive: -0.526
GGCCCAUAAGUACCACUGATT against HBE1 | median seed-adjusted z-score: inactive: -0.425
CAACUUGGACAAGACCUUATT against GYS1 | median seed-adjusted z-score: inactive: 0.874

The results go on:

Sequence | median seed-adjusted z-score
CAACAGCUCUGUACUUACATT against ZHX1 | inactive: -0.566
GCCUUUCAGAAUCCGCAGATT against UQCRC2 | inactive: -0.848
CACUAACAUUUUUCGGAAUTT against ACP6 | inactive: -0.631
GUCAUGGUGUGGAACCAGATT against ADAMTSL2 | inactive: 0.806
CGAGGACACCCUUAGCAGUTT against ADRA1B | inactive: -0.472
GAAAAUUACCACAAGCAAATT against ZNF138 | inactive: -0.0937
CACAUGUUUGACUCAAAUUTT against PLGLB2 | inactive: 0.234
ACACUGACGUGUCUAUGGATT against KCNK9 | inactive: 0.735
CUACGUUGAUAUUAUCAAATT against SULT1C3 | inactive: -0.731
UGGAAUACAUGGAUCAGAATT against HEPACAM | inactive: -0.063
GGGUGAUAAAGAGAGCGGATT against ZNF646 | inactive: 0
UCUCUCAGCUGAUUAAUUUTT against ARL15 | inactive: -0.944
CCAUCUCAGAGAGACCUCUTT against ZNF778 | inactive: 0.0459
GGAGUUAUUCAAAACGAUATT against QRSL1 | inactive: -0.539
GCACCUUACUAUCUCAUGATT against SCYL3 | inactive: 0.665
GACGCAACCUUAUUCGCAATT against FBXO27 | inactive: -0.286
CCCAGUUCCUGCUAUCUCATT against POU2F3 | active: -1.53
CCAGACAGGAGGAACCAUATT against HDAC11 | inactive: 0.259
CACUAGGUCUGGUAAAGGATT against ZFYVE1 | inactive: -0.546
GGAUGUUCCCGUCGCCUUATT against BARHL1 | inactive: 0.397
GCACAGGACAGACAGGCUATT against SRC | inactive: -0.0246
GAAUAGCAUGGAUGAAUGATT against SLC18A1 | inactive: 0.0986

Sequence | median seed-adjusted z-score
CAAUUUAAUCGUUUACCUUTT against MAP2K1IP1 | inactive: 0.333
GGGUUGGAGUAAUUGGUUUTT against GNL3 | inactive: 0.572
GAGCCUCUCCUAUACCAAATT against SLC25A39 | inactive: -0.111
AGAGACAAAAUAAAUGGAATT against HLA-A | inactive: 0.189
CGUUAUUGCCUGUUUGGAATT against GUCY1A2 | inactive: -0.186
AGAGCACAGCGGGCAUAUATT against GSTZ1 | inactive: -0.144
CGCCUAUACUUCUUCAUCUTT against INHBB | inactive: -0.522
CAAUGUAUCUUGUGAUUUUTT against AGPAT5 | inactive: 0.571
GGAAAACCCUGGAUAGUCATT against TIAM1 | inactive: 0.13
AGAGCGAGCCUUUGCUGAUTT against DAD1 | inactive: -0.45
GGAAGUCUCUAAUCUCAAATT against ATP10B | inactive: 0.51
UGAGCAACUUGGACAGCAATT against S100A4 | inactive: 0.567
GUACUGCGAUGAAACUUCATT against ROR1 | inactive: -0.0044
GGAUUCCAGUCCAACAACATT against XPNPEP2 | inactive: -0.158
CAAUUUCCCACAUAACCAATT against TSNAX | inactive: 0.514
CAAGAGAACCAAGCAGAAATT against CXCR5 | inactive: 0.0406
GGCUGUUAAUGGGACAGAUTT against MPZL2 | inactive: -0.0172
CGGCAAUUGUUGACGUGAATT against TXNDC11 | inactive: 0.642
CUAUGACGACUUAUCCAAATT against ATP5A1 | inactive: -0.974
CACUAUUACUGCUACGUGATT against USP36 | inactive: -0.147
GGUACAACAAAAUACUGCATT against CNOT4 | inactive: -0.116
AGAUUUUCGUGGCAUCAGGTT against CRLF2 | inactive: 0.218

Sequence | median seed-adjusted z-score
CCACAACUGUACACCUGAATT against IMPDH2 | inactive: 0.119
CGUAAGCCUUUGGUCAUAATT against HSPD1 | inactive: -0.146
CUGACAAACCGAAAGUAGATT against PCGF5 | inactive: 0.25
GUGAAGAAGUUGCUUAUUATT against MAST1 | inactive: -0.0897
UGGCCAACGUUGUCAUGAATT against RHBDL1 | inactive: -0.365
CGAGUGCUCUUGUACGUGATT against GRHL2 | inactive: 0.0233
GGACUACAGCUAUUCACUUTT against NDST2 | inactive: -0.0582
CUCUCACUCUCAUAGGAGATT against TRA2A | inactive: -0.187
GCUCAUAUGCUGUUGAUUUTT against TMPRSS11E | inactive: 0.0512
AGUUCUACCUGGUCUUUGATT against HIPK4 | inactive: 0
AUAAACUGGUGACAACUUUTT against FABP1 | inactive: -0.302
CCAUAUCAGUGCAACGAGUTT against ZNF624 | inactive: 0.378
GAACUAAGUAUUUCGGAAATT against MPHOSPH10 | inactive: 0.374
CCCACCUGCUUAUCCUCUATT against ABCB8 | inactive: -0.558
GGUCGAGUAUCUCAGAAAATT against SFRS9 | inactive: -0.144
GGUCAUCCUCGAUUUUUCATT against GAD1 | inactive: 0.101
GCUCCAAAUUGGUUGUAUUTT against PRKAG1 | inactive: 0.431
GAACCCAGAGGAUACCUAUTT against REM2 | inactive: 0.109
GGACAGCACCAAGACAAGATT against SPRY1 | inactive: 0.642
GGGACAACUUUGUUAUCAUTT against AP1M1 | inactive: 0.42
GACUUGAAGUCACUGAUGATT against PPM1A | inactive: 0.0153
GCAAUUGAAUAUUGGAGUUTT against MED17 | active: -2.06

Sequence | median seed-adjusted z-score
GAACUAUGACCGAGAAGUATT against POU6F2 | inactive: 0.416
GACCGUUUAAUGAAGCUUUTT against SPTLC2 | inactive: 0
GCAUCAACGCGAACAGAGATT against PRDM16 | inactive: 0.185
GGAUCAAGCACCACUCUUATT against SORBS2 | inactive: 0.0391
CUGUAUCCCUUGGAAAGCATT against OVGP1 | inactive: -0.642
CUACAGUCGGGAACAUGAATT against CLK3 | active: -1.11
AGCUUUUGAUCUGACAGUATT against CCNA1 | inactive: -0.203
CACCUGCCGUUCAUCUAUATT against GYG2 | inactive: 0.113
GACCUAAAGAAGGAGAUUATT against CNOT3 | inactive: 0.872
GAAGCAGAGAUAUACCAGATT against ACVR1B | inactive: 0.201
GGGUAACCACUGACAUUCATT against SUPT5H | active: -4.02
CGGUUACGAUCAGAAUGCATT against CYFIP1 | inactive: -0.377
CUGAUGAGGUGAAACGUGATT against F5 | inactive: -0.127
GCUGAUGAGCGGAUCCUUATT against NFATC2 | inactive: 0.183
CGACUAUGGUUAUGAGCGATT against SORCS1 | inactive: -0.123
CCAAUCACCUGGAUAUCGATT against ABCF2 | inactive: 0.0696
GAUGUUGGUUUAAAGCGAUTT against PTK2 | inactive: -0.0806
CAGGACCGGUUUGAAGUUATT against DDX39 | inactive: -0.342
GGGUGAAUAUUCUCGACAATT against MYH8 | inactive: 0.0648
